Data reported in US8962654B2 (Eli Lilly and Company, priority 2013, dated 2015).

System: hD1 KI mouse hippocampus
Test: Extracellular levels of acetylcholine by microdialysis in the hippocampus
Type: in vivo, mice
Conditions: 1 mg/kg IP

COc1cc2c(cc1OC)C(=O)C(CC1CCN(Cc3ccccc3)CC1)C2 (centres unmarked) [Donepezil, reference compound]
ACh Response AUC ± SEM (2 hr) (hD1 KI mouse hippocampus, AUC relative to pre-injection baseline): 1472 ± 120
extracellular levels of Ach compared to vehicle controls (result in words): statistically significant increase
